Data source: PubChem BioAssay AID1508597 (Cure First, 2020)
Assay: 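Genes whose silencing sensitises or protects ovarian cancer cells against rucaparib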 (primary screen). System: human ovarian carcinoma lines grown from tumours: OCI-P5x (papillary serous) and OCI-C5x (clear cell). Reagent: siRNA pool against human genes, 1.25 pmol siRNA per well. Timing: 72 h or 96 h, depending on the cell culture. Treatment: rucaparib 20 µM (about IC30) or vehicle, present until read-out. Detection: 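Luminescent ATP-based viability assay read 72 or 96 h after transfection, depending on culture, given as normalised percent viability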. Direction: viability, normalised: higher = more viable cells remaining. Rule for the call: 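Active when normalised viability falls below 80 percent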. Meaning of the calls: active = viability under 80%; inactive = viability 80% or more.
The deposit covers about 2,100 reagents; this is a part drawn at random. 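Calls flag viability under 80% in either arm, not effects specific to rucaparib; the reference for percent is not stated.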 Some reagents were tested in more than one well and are listed for each. Reagent sequences are not shown. Not stated in the record: the 100% reference.

For AFF3 (GeneID 3899), rucaparib or vehicle Rucaparib, cell line OCI-C5x (clear cell), technical replicate 1, the entry reads viability, normalised (%) = 57.6; active.
AFF3 (GeneID 3899), rucaparib or vehicle Rucaparib, cell line OCI-C5x (clear cell), technical replicate 2 scored viability, normalised (%) = 50; active.
With AFF3 (GeneID 3899), rucaparib or vehicle Rucaparib, cell line OCI-C5x (clear cell), technical replicate 3, the values are viability, normalised (%) = 48.5; active.
For AFF3 (GeneID 3899), rucaparib or vehicle Rucaparib, cell line OCI-P5x (serous), technical replicate 1 the deposit lists viability, normalised (%) = 74.6; active.
With AFF3 (GeneID 3899), rucaparib or vehicle Rucaparib, cell line OCI-P5x (serous), technical replicate 2 the deposit lists viability, normalised (%) = 70.7; active.
AFF3 (GeneID 3899), rucaparib or vehicle Rucaparib, cell line OCI-P5x (serous), technical replicate 3 scored viability, normalised (%) = 65.4; active.
With AFF3 (GeneID 3899), rucaparib or vehicle Vehicle, cell line OCI-C5x (clear cell), technical replicate 1 the deposit lists viability, normalised (%) = 44.1; active.
AFF3 (GeneID 3899), rucaparib or vehicle Vehicle, cell line OCI-C5x (clear cell), technical replicate 2 gave viability, normalised (%) = 51.2; active.
AFF3 (GeneID 3899), rucaparib or vehicle Vehicle, cell line OCI-C5x (clear cell), technical replicate 3 scored viability, normalised (%) = 39.2; active.
AFF3 (GeneID 3899), rucaparib or vehicle Vehicle, cell line OCI-P5x (serous), technical replicate 1 showed viability, normalised (%) = 53.5; active.
With AFF3 (GeneID 3899), rucaparib or vehicle Vehicle, cell line OCI-P5x (serous), technical replicate 2 the deposit lists viability, normalised (%) = 59.5; active.
With AFF3 (GeneID 3899), rucaparib or vehicle Vehicle, cell line OCI-P5x (serous), technical replicate 3, the values are viability, normalised (%) = 77.5; active.
With SHPK (GeneID 23729), rucaparib or vehicle Rucaparib, cell line OCI-C5x (clear cell), technical replicate 1, the entry reads viability, normalised (%) = 57.9; active.
SHPK (GeneID 23729), rucaparib or vehicle Rucaparib, cell line OCI-C5x (clear cell), technical replicate 2 showed viability, normalised (%) = 63.2; active.
SHPK (GeneID 23729), rucaparib or vehicle Rucaparib, cell line OCI-C5x (clear cell), technical replicate 3 scored viability, normalised (%) = 66.8; active.
SHPK (GeneID 23729), rucaparib or vehicle Rucaparib, cell line OCI-P5x (serous), technical replicate 1 gave viability, normalised (%) = 83.4; inactive.
For SHPK (GeneID 23729), rucaparib or vehicle Rucaparib, cell line OCI-P5x (serous), technical replicate 2 the deposit lists viability, normalised (%) = 88.6; inactive.
SHPK (GeneID 23729), rucaparib or vehicle Rucaparib, cell line OCI-P5x (serous), technical replicate 3 scored viability, normalised (%) = 53.8; active.
SHPK (GeneID 23729), rucaparib or vehicle Vehicle, cell line OCI-C5x (clear cell), technical replicate 1 scored viability, normalised (%) = 52.9; active.
SHPK (GeneID 23729), rucaparib or vehicle Vehicle, cell line OCI-C5x (clear cell), technical replicate 2 scored viability, normalised (%) = 69.5; active.
For SHPK (GeneID 23729), rucaparib or vehicle Vehicle, cell line OCI-C5x (clear cell), technical replicate 3, the entry reads viability, normalised (%) = 58.8; active.
SHPK (GeneID 23729), rucaparib or vehicle Vehicle, cell line OCI-P5x (serous), technical replicate 1 scored viability, normalised (%) = 63.3; active.
For SHPK (GeneID 23729), rucaparib or vehicle Vehicle, cell line OCI-P5x (serous), technical replicate 2 the deposit lists viability, normalised (%) = 73.7; active.
SHPK (GeneID 23729), rucaparib or vehicle Vehicle, cell line OCI-P5x (serous), technical replicate 3 scored viability, normalised (%) = 64.8; active.
HASPIN (GeneID 83903), rucaparib or vehicle Rucaparib, cell line OCI-C5x (clear cell), technical replicate 1 scored viability, normalised (%) = 32.1; active.
HASPIN (GeneID 83903), rucaparib or vehicle Rucaparib, cell line OCI-C5x (clear cell), technical replicate 1 scored viability, normalised (%) = 39.4; active.
With HASPIN (GeneID 83903), rucaparib or vehicle Rucaparib, cell line OCI-C5x (clear cell), technical replicate 1, the entry reads viability, normalised (%) = 52.3; active.
HASPIN (GeneID 83903), rucaparib or vehicle Rucaparib, cell line OCI-C5x (clear cell), technical replicate 2 showed viability, normalised (%) = 59.7; active.
For HASPIN (GeneID 83903), rucaparib or vehicle Rucaparib, cell line OCI-C5x (clear cell), technical replicate 2 the deposit lists viability, normalised (%) = 44.3; active.
With HASPIN (GeneID 83903), rucaparib or vehicle Rucaparib, cell line OCI-C5x (clear cell), technical replicate 2, the entry reads viability, normalised (%) = 52.7; active.
With HASPIN (GeneID 83903), rucaparib or vehicle Rucaparib, cell line OCI-C5x (clear cell), technical replicate 3, the entry reads viability, normalised (%) = 59.1; active.
HASPIN (GeneID 83903), rucaparib or vehicle Rucaparib, cell line OCI-C5x (clear cell), technical replicate 3 scored viability, normalised (%) = 58.8; active.
With HASPIN (GeneID 83903), rucaparib or vehicle Rucaparib, cell line OCI-C5x (clear cell), technical replicate 3 the deposit lists viability, normalised (%) = 42.2; active.
HASPIN (GeneID 83903), rucaparib or vehicle Rucaparib, cell line OCI-P5x (serous), technical replicate 1 showed viability, normalised (%) = 59.2; active.
With HASPIN (GeneID 83903), rucaparib or vehicle Rucaparib, cell line OCI-P5x (serous), technical replicate 1 the deposit lists viability, normalised (%) = 55.2; active.
For HASPIN (GeneID 83903), rucaparib or vehicle Rucaparib, cell line OCI-P5x (serous), technical replicate 1, the values are viability, normalised (%) = 68.6; active.
For HASPIN (GeneID 83903), rucaparib or vehicle Rucaparib, cell line OCI-P5x (serous), technical replicate 2, the values are viability, normalised (%) = 66.8; active.
HASPIN (GeneID 83903), rucaparib or vehicle Rucaparib, cell line OCI-P5x (serous), technical replicate 2 gave viability, normalised (%) = 59.6; active.
HASPIN (GeneID 83903), rucaparib or vehicle Rucaparib, cell line OCI-P5x (serous), technical replicate 2 gave viability, normalised (%) = 64.4; active.
With HASPIN (GeneID 83903), rucaparib or vehicle Rucaparib, cell line OCI-P5x (serous), technical replicate 3 the deposit lists viability, normalised (%) = 71.9; active.
HASPIN (GeneID 83903), rucaparib or vehicle Rucaparib, cell line OCI-P5x (serous), technical replicate 3 showed viability, normalised (%) = 77.1; active.
For HASPIN (GeneID 83903), rucaparib or vehicle Rucaparib, cell line OCI-P5x (serous), technical replicate 3, the entry reads viability, normalised (%) = 74.2; active.
HASPIN (GeneID 83903), rucaparib or vehicle Vehicle, cell line OCI-C5x (clear cell), technical replicate 1 scored viability, normalised (%) = 52.6; active.
With HASPIN (GeneID 83903), rucaparib or vehicle Vehicle, cell line OCI-C5x (clear cell), technical replicate 1, the values are viability, normalised (%) = 52.4; active.
With HASPIN (GeneID 83903), rucaparib or vehicle Vehicle, cell line OCI-C5x (clear cell), technical replicate 1, the entry reads viability, normalised (%) = 55.4; active.
For HASPIN (GeneID 83903), rucaparib or vehicle Vehicle, cell line OCI-C5x (clear cell), technical replicate 2 the deposit lists viability, normalised (%) = 41.5; active.
HASPIN (GeneID 83903), rucaparib or vehicle Vehicle, cell line OCI-C5x (clear cell), technical replicate 2 scored viability, normalised (%) = 40.7; active.
HASPIN (GeneID 83903), rucaparib or vehicle Vehicle, cell line OCI-C5x (clear cell), technical replicate 2 scored viability, normalised (%) = 55; active.
HASPIN (GeneID 83903), rucaparib or vehicle Vehicle, cell line OCI-C5x (clear cell), technical replicate 3 gave viability, normalised (%) = 47.1; active.
HASPIN (GeneID 83903), rucaparib or vehicle Vehicle, cell line OCI-C5x (clear cell), technical replicate 3 showed viability, normalised (%) = 51.3; active.
HASPIN (GeneID 83903), rucaparib or vehicle Vehicle, cell line OCI-C5x (clear cell), technical replicate 3 gave viability, normalised (%) = 61.2; active.
For HASPIN (GeneID 83903), rucaparib or vehicle Vehicle, cell line OCI-P5x (serous), technical replicate 1 the deposit lists viability, normalised (%) = 63.8; active.
With HASPIN (GeneID 83903), rucaparib or vehicle Vehicle, cell line OCI-P5x (serous), technical replicate 1, the entry reads viability, normalised (%) = 67.6; active.
HASPIN (GeneID 83903), rucaparib or vehicle Vehicle, cell line OCI-P5x (serous), technical replicate 1 scored viability, normalised (%) = 78.1; active.
HASPIN (GeneID 83903), rucaparib or vehicle Vehicle, cell line OCI-P5x (serous), technical replicate 2 gave viability, normalised (%) = 77.3; active.
HASPIN (GeneID 83903), rucaparib or vehicle Vehicle, cell line OCI-P5x (serous), technical replicate 2 showed viability, normalised (%) = 56.9; active.
For HASPIN (GeneID 83903), rucaparib or vehicle Vehicle, cell line OCI-P5x (serous), technical replicate 2, the values are viability, normalised (%) = 47.6; active.
HASPIN (GeneID 83903), rucaparib or vehicle Vehicle, cell line OCI-P5x (serous), technical replicate 3 gave viability, normalised (%) = 85.6; inactive.
With HASPIN (GeneID 83903), rucaparib or vehicle Vehicle, cell line OCI-P5x (serous), technical replicate 3 the deposit lists viability, normalised (%) = 68.9; active.
HASPIN (GeneID 83903), rucaparib or vehicle Vehicle, cell line OCI-P5x (serous), technical replicate 3 scored viability, normalised (%) = 67.2; active.

Part of the list above, set out differently.
Target gene,rucaparib or vehicle,cell line,technical replicate,"viability, normalised (%)",Outcome
AFF3 (GeneID 3899),Vehicle,OCI-C5x (clear cell),3,39.2,active
AFF3 (GeneID 3899),Vehicle,OCI-P5x (serous),1,53.5,active
AFF3 (GeneID 3899),Vehicle,OCI-P5x (serous),2,59.5,active
AFF3 (GeneID 3899),Vehicle,OCI-P5x (serous),3,77.5,active
SHPK (GeneID 23729),Rucaparib,OCI-C5x (clear cell),1,57.9,active
SHPK (GeneID 23729),Rucaparib,OCI-C5x (clear cell),2,63.2,active
SHPK (GeneID 23729),Rucaparib,OCI-C5x (clear cell),3,66.8,active
SHPK (GeneID 23729),Rucaparib,OCI-P5x (serous),1,83.4,inactive
